Chains of the proteins cited; added tags and fusions are not shown.
UniProt P08183, whole entry: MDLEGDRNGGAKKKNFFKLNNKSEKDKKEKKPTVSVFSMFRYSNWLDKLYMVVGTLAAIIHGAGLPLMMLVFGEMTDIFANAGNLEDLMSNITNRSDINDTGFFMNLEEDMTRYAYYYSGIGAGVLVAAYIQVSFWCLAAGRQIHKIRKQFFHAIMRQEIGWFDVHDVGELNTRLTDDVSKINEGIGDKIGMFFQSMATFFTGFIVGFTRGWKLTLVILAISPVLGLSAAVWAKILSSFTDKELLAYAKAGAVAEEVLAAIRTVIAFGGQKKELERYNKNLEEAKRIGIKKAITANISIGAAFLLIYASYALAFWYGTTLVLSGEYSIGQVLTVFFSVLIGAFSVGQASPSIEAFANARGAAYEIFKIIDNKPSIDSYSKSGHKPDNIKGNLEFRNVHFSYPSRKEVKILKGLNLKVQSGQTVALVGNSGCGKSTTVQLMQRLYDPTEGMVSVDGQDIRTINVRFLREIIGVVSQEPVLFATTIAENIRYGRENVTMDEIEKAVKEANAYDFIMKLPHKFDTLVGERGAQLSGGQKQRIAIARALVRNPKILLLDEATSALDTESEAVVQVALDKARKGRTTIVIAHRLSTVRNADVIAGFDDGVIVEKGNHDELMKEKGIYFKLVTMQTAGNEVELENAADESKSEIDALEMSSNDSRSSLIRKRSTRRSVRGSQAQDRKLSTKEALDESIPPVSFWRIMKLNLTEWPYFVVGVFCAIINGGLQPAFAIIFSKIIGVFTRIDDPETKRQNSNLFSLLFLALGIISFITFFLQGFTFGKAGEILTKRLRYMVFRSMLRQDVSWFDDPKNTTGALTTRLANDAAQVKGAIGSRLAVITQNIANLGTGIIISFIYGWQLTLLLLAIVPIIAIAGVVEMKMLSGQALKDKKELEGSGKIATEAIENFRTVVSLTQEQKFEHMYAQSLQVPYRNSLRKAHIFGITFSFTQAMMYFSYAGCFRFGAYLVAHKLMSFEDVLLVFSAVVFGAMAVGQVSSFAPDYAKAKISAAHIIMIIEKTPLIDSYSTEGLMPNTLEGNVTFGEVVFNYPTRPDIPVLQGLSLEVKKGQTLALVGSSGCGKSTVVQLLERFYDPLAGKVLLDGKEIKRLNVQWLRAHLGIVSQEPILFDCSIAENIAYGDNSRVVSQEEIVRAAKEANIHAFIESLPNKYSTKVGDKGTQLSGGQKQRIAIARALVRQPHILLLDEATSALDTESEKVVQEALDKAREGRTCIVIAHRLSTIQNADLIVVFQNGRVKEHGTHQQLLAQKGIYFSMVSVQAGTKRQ

According to ChEMBL document CHEMBL2073809, “Interrelationship between substrates and inhibitors of human CYP3A and P-glycoprotein” (Pharm Res, 1999):

Target: ABCB1 (P-glycoprotein) (Homo sapiens, UniProt P08183)
Assay: in vitro
Settings: Caco-2

## COC(=O)C1=C(C)NC(C)=C(C(=O)OC)C1c1ccccc1[N+](=O)[O-] [NIFEDIPINE]
  inhibition at 100 µM: 56%
